Laboratory results taken from US12441773B2, “Peptides, hydrogel compositions and methods of use thereof” (Regents of the University of Minnesota, priority 2019, dated 2025).
Part of at least one peptide drawing is inferred or uncertain, most often the ends. Some of these results come from one statement about several compounds together. Where a SMILES comes first, the peptide text is derived from it. [ ]: non-standard residue; d: D form. PEG1 = NCCOCCC(=O)O

Legend:
[1] = test system: S. aureus; assay: Overnight growth of S. aureus on preformed hydrogels (OD 630 nm); type: cell-based, Staphylococcus aureus; conditions: preformed hydrogel
[2] = test system: S. aureus; assay: Peptide hydrogels placed on S. aureus plated on agar; type: cell-based, Staphylococcus aureus; conditions: hydrogel on agar plate
Description: FIG. 3. Peptide hydrogels on S. aureus.
To test antibacterial activity, S. aureus (FIG. 3) or P. aeruginosa (FIG. 4) were plated on agar and peptide hydrogels placed on top of the bacteria. The plates were incubated to allow a bacterial lawn to grow. […] The larger inhibition zone seen for DGL13R is consistent with a lack of hydrogel formation, which allowed the peptide solution to spread on the plate.

SMILES: CC[C@@H](C)[C@@H](NC(=O)[C@@H](CCCCN)NC(=O)CNC(=O)[C@@H](C)NC(=O)CNC(=O)CNC(=O)[C@@H](CC(C)C)NC(=O)CCOCCN)C(=O)N[C@@H](C(=O)N[C@H](CCCCN)C(=O)N[C@H](CC(C)C)C(=O)N[C@H](CCCCN)C(=O)N[C@H](C)C(=O)N[C@H](CO)C(=O)N[C@H](CC(C)C)C(=O)N[C@H](CCCCN)C(=O)N[C@H](CC(C)C)C(=O)N[C@H](CC(C)C)C(N)=O)[C@H](C)CC [PEG-pro-DGL13K, PEG-d-Leu-Gly-Gly-d-Ala-Gly-d-Lys-d-Ile-d-Ile-d-Lys-d-Leu-d-Lys-d-Ala-d-Ser-d-Leu-d-Lys-d-Leu-d-Leu-CONH2] (H-[PEG1][dL]GG[dA]G[dK][dI][dI][dK][dL][dK][dA][dS][dL][dK][dL][dL]-NH2)
- Starting bacterial load up to which growth was prevented (Sa) [1]: ≤ 10^6 CFU

SMILES: CC[C@@H](C)[C@@H](NC(=O)[C@@H](CCCCN)NC(=O)CN)C(=O)N[C@@H](C(=O)N[C@H](CCCCN)C(=O)N[C@H](CC(C)C)C(=O)N[C@H](CCCCN)C(=O)N[C@H](C)C(=O)N[C@H](CO)C(=O)N[C@H](CC(C)C)C(=O)N[C@H](CCCCN)C(=O)N[C@H](CC(C)C)C(=O)N[C@H](CC(C)C)C(N)=O)[C@H](C)CC [DGL13K, NH2-Gly-d-Lys-d-Ile-d-Ile-d-Lys-d-Leu-d-Lys-d-Ala-d-Ser-d-Leu-d-Lys-d-Leu-d-Leu-CONH2] (H-G[dK][dI][dI][dK][dL][dK][dA][dS][dL][dK][dL][dL]-NH2)
- Starting bacterial load up to which growth was prevented (Sa) [1]: ≤ 10^6 CFU

SMILES: CC[C@@H](C)[C@@H](NC(=O)[C@@H](CCCCN)NC(=O)CNC(=O)CCOCCN)C(=O)N[C@@H](C(=O)N[C@H](CCCCN)C(=O)N[C@H](CC(C)C)C(=O)N[C@H](CCCCN)C(=O)N[C@H](C)C(=O)N[C@H](CO)C(=O)N[C@H](CC(C)C)C(=O)N[C@H](CCCCN)C(=O)N[C@H](CC(C)C)C(=O)N[C@H](CC(C)C)C(N)=O)[C@H](C)CC [PEG-DGL13K, PEG-Gly-d-Lys-d-Ile-d-Ile-d-Lys-d-Leu-d-Lys-d-Ala-d-Ser-d-Leu-d-Lys-d-Leu-d-Leu-CONH2] (H-[PEG1]G[dK][dI][dI][dK][dL][dK][dA][dS][dL][dK][dL][dL]-NH2)
- Growth of S. aureus lawn under peptide hydrogel [2]: prevented the growth
